Test results from the supplement of paper PMC10849652.
The list shows a part of the results.

Sequences of proteins named here, by UniProt entry; tags and fusion partners are left off. A change or cut given only in a name is not applied to a line headed by its entry.
UniProt Q8TEM1: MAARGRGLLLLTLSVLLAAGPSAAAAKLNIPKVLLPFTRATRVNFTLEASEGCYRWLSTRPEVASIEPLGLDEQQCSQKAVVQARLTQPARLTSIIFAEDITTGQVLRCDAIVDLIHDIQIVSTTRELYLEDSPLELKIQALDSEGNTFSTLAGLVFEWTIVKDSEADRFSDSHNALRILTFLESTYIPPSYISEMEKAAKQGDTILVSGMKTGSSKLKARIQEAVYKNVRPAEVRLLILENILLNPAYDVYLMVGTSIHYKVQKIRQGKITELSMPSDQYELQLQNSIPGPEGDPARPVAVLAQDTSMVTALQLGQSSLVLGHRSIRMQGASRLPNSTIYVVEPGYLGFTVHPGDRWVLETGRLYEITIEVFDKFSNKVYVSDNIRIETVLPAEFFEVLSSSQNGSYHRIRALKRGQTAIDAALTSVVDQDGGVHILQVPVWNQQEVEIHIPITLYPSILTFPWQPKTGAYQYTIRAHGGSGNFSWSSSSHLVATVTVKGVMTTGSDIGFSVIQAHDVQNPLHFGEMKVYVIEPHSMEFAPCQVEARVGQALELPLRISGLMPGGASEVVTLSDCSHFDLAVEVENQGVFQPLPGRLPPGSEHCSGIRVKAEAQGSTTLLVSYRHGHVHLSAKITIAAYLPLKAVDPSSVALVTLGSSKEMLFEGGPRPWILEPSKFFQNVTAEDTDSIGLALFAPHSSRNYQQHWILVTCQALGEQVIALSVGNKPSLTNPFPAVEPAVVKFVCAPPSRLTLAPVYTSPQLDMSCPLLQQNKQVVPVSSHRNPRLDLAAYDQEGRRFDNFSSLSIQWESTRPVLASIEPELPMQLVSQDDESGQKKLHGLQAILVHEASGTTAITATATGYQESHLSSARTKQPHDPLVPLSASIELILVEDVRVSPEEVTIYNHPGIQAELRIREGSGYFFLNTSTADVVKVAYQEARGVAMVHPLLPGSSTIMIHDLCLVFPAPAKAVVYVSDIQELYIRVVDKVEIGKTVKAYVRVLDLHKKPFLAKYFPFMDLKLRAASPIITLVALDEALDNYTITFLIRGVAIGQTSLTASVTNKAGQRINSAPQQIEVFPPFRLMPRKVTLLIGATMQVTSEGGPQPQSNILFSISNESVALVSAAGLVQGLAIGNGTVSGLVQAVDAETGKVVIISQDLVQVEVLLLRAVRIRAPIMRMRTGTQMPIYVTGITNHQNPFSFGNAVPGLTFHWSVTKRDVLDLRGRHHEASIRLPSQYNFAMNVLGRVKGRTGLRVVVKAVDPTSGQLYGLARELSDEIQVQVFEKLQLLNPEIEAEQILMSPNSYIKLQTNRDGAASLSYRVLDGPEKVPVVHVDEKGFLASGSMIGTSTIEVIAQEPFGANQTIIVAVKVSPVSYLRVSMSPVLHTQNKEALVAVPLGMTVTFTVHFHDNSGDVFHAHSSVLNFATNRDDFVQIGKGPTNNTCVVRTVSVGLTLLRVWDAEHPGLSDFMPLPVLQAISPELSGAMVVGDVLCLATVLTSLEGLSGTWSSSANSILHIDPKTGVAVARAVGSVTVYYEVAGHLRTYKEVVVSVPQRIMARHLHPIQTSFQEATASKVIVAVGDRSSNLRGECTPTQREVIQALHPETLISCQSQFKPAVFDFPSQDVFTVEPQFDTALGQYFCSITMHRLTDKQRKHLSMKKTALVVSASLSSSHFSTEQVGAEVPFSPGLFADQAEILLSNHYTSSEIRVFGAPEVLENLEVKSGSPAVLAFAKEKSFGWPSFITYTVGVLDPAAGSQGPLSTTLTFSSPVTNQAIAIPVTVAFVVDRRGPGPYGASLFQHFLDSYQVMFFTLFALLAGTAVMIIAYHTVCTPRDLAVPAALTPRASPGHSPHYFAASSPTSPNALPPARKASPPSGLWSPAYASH
UniProt Q96E52: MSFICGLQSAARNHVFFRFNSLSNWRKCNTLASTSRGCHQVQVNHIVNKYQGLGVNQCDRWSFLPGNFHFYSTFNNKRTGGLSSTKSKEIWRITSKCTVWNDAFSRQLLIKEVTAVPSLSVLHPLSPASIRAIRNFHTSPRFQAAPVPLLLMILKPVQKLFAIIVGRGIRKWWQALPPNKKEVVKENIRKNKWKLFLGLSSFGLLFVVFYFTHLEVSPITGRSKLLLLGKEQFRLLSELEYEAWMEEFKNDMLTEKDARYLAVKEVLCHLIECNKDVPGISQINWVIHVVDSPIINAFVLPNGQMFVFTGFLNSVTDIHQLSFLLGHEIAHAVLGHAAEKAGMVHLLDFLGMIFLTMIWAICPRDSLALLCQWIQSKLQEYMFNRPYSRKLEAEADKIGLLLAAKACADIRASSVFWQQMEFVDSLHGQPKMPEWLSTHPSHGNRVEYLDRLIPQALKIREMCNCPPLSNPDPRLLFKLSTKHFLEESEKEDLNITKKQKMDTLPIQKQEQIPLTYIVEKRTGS
UniProt Q8WVJ2: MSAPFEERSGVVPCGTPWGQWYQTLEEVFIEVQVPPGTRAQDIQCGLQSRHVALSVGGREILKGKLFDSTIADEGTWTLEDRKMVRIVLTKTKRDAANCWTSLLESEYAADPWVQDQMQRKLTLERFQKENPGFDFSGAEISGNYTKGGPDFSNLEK
UniProt Q7Z3B4: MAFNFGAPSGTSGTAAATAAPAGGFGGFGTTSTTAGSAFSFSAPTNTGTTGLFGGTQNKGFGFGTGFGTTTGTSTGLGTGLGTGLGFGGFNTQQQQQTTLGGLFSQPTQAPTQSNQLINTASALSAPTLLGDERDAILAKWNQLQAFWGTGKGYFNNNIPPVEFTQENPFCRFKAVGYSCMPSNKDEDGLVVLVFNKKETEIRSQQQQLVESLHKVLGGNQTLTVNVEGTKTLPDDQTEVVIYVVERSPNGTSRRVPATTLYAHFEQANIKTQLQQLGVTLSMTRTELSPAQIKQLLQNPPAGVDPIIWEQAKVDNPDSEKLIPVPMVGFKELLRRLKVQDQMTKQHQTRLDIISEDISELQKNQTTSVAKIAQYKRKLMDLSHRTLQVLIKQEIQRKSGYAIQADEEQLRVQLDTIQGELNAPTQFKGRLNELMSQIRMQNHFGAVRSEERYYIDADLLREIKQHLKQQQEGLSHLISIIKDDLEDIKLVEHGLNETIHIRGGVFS
UniProt P80303: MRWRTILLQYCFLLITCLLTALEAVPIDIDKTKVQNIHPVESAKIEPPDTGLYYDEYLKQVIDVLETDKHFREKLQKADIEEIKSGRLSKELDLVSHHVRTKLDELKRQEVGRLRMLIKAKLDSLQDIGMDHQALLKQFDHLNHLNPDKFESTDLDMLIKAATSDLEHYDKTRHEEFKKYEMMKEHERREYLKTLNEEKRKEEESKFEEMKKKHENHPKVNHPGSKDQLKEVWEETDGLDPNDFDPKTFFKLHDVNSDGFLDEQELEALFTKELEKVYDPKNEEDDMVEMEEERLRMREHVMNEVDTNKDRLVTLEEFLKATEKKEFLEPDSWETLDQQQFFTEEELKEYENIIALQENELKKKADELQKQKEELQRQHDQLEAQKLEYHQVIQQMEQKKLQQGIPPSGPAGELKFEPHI
UniProt Q8NFH3: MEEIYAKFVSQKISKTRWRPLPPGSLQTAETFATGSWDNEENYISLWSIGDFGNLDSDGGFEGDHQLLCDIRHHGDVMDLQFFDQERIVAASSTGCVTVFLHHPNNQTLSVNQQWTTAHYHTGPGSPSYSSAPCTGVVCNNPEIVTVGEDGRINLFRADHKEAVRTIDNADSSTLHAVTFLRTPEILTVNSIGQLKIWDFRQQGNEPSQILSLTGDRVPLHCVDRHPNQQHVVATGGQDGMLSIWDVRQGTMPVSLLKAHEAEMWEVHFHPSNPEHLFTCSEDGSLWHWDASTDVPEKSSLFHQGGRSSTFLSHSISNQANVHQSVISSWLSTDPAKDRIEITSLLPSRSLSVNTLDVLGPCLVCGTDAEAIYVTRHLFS
UniProt Q8N543: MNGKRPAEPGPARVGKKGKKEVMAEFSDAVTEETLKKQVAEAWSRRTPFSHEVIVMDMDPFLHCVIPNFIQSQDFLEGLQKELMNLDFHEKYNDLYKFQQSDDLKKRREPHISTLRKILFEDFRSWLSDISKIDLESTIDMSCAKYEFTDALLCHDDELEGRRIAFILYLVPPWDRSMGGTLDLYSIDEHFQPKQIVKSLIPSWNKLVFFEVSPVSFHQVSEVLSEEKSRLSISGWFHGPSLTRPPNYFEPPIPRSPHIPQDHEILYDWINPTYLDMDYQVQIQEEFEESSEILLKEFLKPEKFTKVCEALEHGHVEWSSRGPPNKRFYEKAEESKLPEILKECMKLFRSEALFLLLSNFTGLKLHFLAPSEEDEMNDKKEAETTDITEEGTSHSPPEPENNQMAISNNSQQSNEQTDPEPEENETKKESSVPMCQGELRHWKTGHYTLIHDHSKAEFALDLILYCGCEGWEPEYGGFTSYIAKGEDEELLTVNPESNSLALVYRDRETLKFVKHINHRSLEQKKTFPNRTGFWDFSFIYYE
UniProt P35658: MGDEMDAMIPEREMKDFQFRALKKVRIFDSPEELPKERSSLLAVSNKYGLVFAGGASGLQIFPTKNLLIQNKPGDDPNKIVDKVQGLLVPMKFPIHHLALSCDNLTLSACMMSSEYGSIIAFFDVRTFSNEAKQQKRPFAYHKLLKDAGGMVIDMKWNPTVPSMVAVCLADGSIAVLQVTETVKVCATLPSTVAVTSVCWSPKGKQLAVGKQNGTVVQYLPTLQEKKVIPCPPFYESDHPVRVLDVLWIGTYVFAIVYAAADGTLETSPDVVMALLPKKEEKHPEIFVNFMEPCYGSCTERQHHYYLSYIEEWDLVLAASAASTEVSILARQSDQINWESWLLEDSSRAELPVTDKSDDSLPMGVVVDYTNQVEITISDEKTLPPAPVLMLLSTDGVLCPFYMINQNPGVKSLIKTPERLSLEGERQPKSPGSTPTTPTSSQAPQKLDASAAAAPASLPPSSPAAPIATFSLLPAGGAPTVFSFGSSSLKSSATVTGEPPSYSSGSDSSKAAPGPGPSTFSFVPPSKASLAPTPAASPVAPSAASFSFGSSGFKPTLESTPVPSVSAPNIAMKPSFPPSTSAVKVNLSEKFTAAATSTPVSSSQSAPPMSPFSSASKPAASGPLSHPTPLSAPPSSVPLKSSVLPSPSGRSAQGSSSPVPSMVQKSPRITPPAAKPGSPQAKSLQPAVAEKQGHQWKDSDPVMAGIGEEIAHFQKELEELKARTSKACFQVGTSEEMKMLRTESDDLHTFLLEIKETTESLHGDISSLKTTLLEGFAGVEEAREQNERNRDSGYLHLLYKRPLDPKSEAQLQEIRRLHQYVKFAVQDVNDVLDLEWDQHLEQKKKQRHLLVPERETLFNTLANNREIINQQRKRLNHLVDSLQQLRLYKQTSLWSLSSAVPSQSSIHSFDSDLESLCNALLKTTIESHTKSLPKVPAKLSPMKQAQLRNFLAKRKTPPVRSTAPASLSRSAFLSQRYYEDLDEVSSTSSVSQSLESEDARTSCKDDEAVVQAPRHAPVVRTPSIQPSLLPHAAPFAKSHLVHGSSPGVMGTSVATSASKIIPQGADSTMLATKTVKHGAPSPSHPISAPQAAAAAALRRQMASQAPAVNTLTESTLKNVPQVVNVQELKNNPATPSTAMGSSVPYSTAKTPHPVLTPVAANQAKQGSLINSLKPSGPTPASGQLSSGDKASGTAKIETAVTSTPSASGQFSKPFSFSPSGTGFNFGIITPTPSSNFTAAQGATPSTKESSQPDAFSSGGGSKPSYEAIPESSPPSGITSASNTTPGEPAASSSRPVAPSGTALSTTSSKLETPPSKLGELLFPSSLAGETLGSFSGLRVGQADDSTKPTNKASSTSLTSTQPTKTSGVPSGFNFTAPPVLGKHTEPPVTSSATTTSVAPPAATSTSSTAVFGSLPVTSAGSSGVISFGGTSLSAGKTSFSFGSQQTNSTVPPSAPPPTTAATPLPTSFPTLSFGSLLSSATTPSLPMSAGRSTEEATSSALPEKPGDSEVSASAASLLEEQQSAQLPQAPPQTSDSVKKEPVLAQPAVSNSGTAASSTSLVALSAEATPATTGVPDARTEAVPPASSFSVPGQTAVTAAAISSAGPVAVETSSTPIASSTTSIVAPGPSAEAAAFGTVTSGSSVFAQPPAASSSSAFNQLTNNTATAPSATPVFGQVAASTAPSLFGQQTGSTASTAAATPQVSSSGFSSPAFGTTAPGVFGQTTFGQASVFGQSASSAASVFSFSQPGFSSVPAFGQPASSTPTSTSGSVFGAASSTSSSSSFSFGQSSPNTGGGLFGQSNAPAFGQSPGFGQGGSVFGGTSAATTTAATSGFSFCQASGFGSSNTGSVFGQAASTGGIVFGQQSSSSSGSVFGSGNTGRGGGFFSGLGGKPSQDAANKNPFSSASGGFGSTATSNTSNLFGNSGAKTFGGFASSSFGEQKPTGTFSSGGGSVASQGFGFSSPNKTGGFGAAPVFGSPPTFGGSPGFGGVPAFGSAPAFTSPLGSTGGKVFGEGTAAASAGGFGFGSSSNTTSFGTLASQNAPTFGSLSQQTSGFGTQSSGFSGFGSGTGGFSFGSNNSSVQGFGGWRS

Key:
Assay in all cases: log2 fold change, soluble protein after heating vs DMSO (PISA); higher = thermal stabilisation; K562 cells, 10 uM, 30 min; active = over 0.2 and 3.5 SD of the protein, either way, in both replicates (recomputed)
[1] = compound: NC(=O)Nc1cc(-c2cccc(F)c2)sc1C(=O)N[C@H]1CCCNC1
Procedure, shortened: (§1)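 Aliquots of K562 cells (2×10^6 cells/mL) treated with 10 μM compound for 30 min were heated for 3 min over 48°C-58°C. After pooling and extraction in PBS with 0.5% NP-40 at 4°C, soluble protein from a 21,000xg, 90 min spin was quantified by TMTpro 16plex LC-MS/MS with channel sums equalised. Thermal stability is expressed against control samples, from duplicates, as a log2 fold change.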

[2] = compound: NC(=O)c1cnc(N[C@@H]2CCCC[C@@H]2N)nc1Nc1cccc(-n2nccn2)c1
Procedure, shortened: as §1

[3] = compound: NC1(c2ccc(-c3nc4ccn5c(=O)[nH]nc5c4cc3-c3ccccc3)cc2)CCC1
Procedure, shortened: as §1

[4] = compound: NCC(=O)Nc1ccc(-n2nc(C(F)(F)F)cc2-c2ccc3c(ccc4ccccc43)c2)cc1
Procedure, shortened: as §1

entinostat = compound: Nc1ccccc1NC(=O)c1ccc(CNC(=O)OCc2cccnc2)cc1 [entinostat]
Procedure, shortened: as §1

vorinostat = compound: O=C(CCCCCCC(=O)Nc1ccccc1)NO [vorinostat]
Procedure, shortened: as §1

citarinostat = compound: O=C(CCCCCCNC(=O)c1cnc(N(c2ccccc2)c2ccccc2Cl)nc1)NO [citarinostat]
Procedure, shortened: as §1

silmitasertib = compound: O=C(O)c1ccc2c(c1)nc(Nc1cccc(Cl)c1)c1ccncc12 [silmitasertib]
Procedure, shortened: as §1

[5] = compound: O=C1NC(=O)C(c2cnc3ccccn23)=C1c1cn2c3c(cc(F)cc13)CN(C(=O)N1CCCCC1)CC2
Procedure, shortened: as §1

[6] = compound: c1cc(OCCN2CCCCC2)cc(-c2n[nH]c3ccc(-c4nnc[nH]4)cc23)c1
Procedure, shortened: as §1

Measured: log2 fold change

NUP210 (UniProt Q8TEM1)
inactive: [1] 0.022 | [2] -0.173 | [3] -0.19 | [4] -0.126 | entinostat 0.047 | vorinostat 0.054 | citarinostat 0.022 | silmitasertib -0.033 | [5] -0.004 | [6] -0.023

NUS1 (UniProt Q96E22)
inactive: [1] 0.021 | [2] -0.215 | [3] -0.013 | [4] -0.053 | entinostat -0.03 | vorinostat -0.008 | citarinostat -0.017 | silmitasertib 0.097 | [5] -0.066 | [6] -0.011

OXSR1 (UniProt O95747)
inactive: [1] -0.014 | [2] -0.048 | [3] -0.151 | [4] -0.064 | entinostat 0.031 | vorinostat 0.042 | citarinostat 0.045 | silmitasertib -0.071 | [5] -0.007 | [6] 0.018

OGDH (UniProt Q02218)
inactive: [1] 0.039 | [2] 0.025 | [3] -0.027 | [4] 0.028 | entinostat 0 | vorinostat 0.058 | citarinostat -0.022 | silmitasertib -0.063 | [5] 0.029 | [6] -0.032

OMA1 (UniProt Q96E52)
inactive: [1] -0.009 | [2] -0.048 | [3] -0.046 | [4] -0.029 | entinostat -0.037 | vorinostat -0.225 | citarinostat 0.017 | silmitasertib 0.013 | [5] 0.016 | [6] -0.023

NUDCD2 (UniProt Q8WVJ2)
inactive: [1] -0.108 | [2] -0.099 | [3] -0.056 | [4] -0.172 | entinostat 0.028 | vorinostat 0.147 | citarinostat 0.007 | silmitasertib 0.063 | [5] -0.183 | [6] -0.044

NUP54 (UniProt Q7Z3B4)
inactive: [1] -0.053 | [2] -0.014 | [3] -0.085 | [4] -0.052 | entinostat 0.075 | vorinostat 0.047 | citarinostat 0.076 | silmitasertib 0.018 | [5] -0.074 | [6] -0.043

NUTF2 (UniProt P61970)
inactive: [1] 0.041 | [2] 0.07 | [3] 0.016 | [4] 0.081 | entinostat -0.033 | vorinostat -0.009 | citarinostat 0.053 | silmitasertib -0.064 | [5] 0.016 | [6] 0.006

OTUB1 (UniProt Q96FW1)
inactive: [1] -0.012 | [2] -0.014 | [3] -0.113 | [4] -0.059 | entinostat 0.004 | vorinostat 0.064 | citarinostat 0.066 | silmitasertib -0.049 | [5] -0.066 | [6] -0.019

NUMA1 (UniProt Q14980)
inactive: [1] -0.117 | [2] -0.091 | [3] -0.139 | [4] 0.101 | entinostat 0.072 | vorinostat 0.002 | citarinostat 0.01 | silmitasertib 0.005 | [5] 0.007 | [6] -0.12

OXSM (UniProt Q9NWU1)
inactive: [1] 0.016 | [2] 0.068 | [3] -0.026 | [4] 0.049 | entinostat -0.019 | vorinostat -0.028 | citarinostat 0.037 | silmitasertib -0.04 | [5] -0.011 | [6] -0.015

NUMB (UniProt P49757)
inactive: [1] -0.088 | [2] -0.022 | [3] -0.002 | [4] -0.003 | entinostat -0.041 | vorinostat 0.037 | citarinostat 0.009 | silmitasertib 0.007 | [5] -0.097 | [6] -0.032

NUP62 (UniProt P37198)
inactive: [1] -0.017 | [2] -0.018 | [3] -0.041 | [4] -0.043 | entinostat 0.051 | vorinostat 0.024 | citarinostat 0.016 | silmitasertib 0.048 | [5] -0.045 | [6] -0.084

NUDT3 (UniProt O95989)
inactive: [1] -0.026 | [2] -0.034 | [3] -0.017 | [4] -0.006 | entinostat -0.029 | vorinostat 0.07 | citarinostat -0.036 | silmitasertib -0.034 | [5] -0.049 | [6] 0.018

NSMCE2 (UniProt Q96MF7)
inactive: [1] 0.065 | [2] -0.027 | [3] -0.008 | [4] -0.046 | entinostat -0.115 | vorinostat 0.128 | citarinostat -0.04 | silmitasertib 0.055 | [5] -0.068 | [6] -0.069

NUCB2 (UniProt P80303)
inactive: [1] 0.013 | [2] -0.001 | [3] -0.003 | [4] -0.013 | entinostat -0.011 | vorinostat -0.033 | citarinostat 0.024 | silmitasertib 0.013 | [5] -0.011 | [6] -0.057

NUP133 (UniProt Q8WUM0)
inactive: [1] 0.034 | [2] 0.127 | [3] -0.024 | [4] -0.109 | entinostat -0.008 | vorinostat 0.104 | citarinostat -0.004 | silmitasertib 0.007 | [5] 0.039 | [6] -0.092

Quoted from the results shown (6 entries):
NUMB (UniProt P49757)
inactive: [1] -0.088 | [2] -0.022 | [3] -0.002 | [4] -0.003 | entinostat -0.041 | vorinostat 0.037 | citarinostat 0.009 | silmitasertib 0.007 | [5] -0.097 | [6] -0.032

NUP62 (UniProt P37198)
inactive: [1] -0.017 | [2] -0.018 | [3] -0.041 | [4] -0.043 | entinostat 0.051 | vorinostat 0.024 | citarinostat 0.016 | silmitasertib 0.048 | [5] -0.045 | [6] -0.084

NUDT3 (UniProt O95989)
inactive: [1] -0.026 | [2] -0.034 | [3] -0.017 | [4] -0.006 | entinostat -0.029 | vorinostat 0.07 | citarinostat -0.036 | silmitasertib -0.034 | [5] -0.049 | [6] 0.018

NSMCE2 (UniProt Q96MF7)
inactive: [1] 0.065 | [2] -0.027 | [3] -0.008 | [4] -0.046 | entinostat -0.115 | vorinostat 0.128 | citarinostat -0.04 | silmitasertib 0.055 | [5] -0.068 | [6] -0.069

NUCB2 (UniProt P80303)
inactive: [1] 0.013 | [2] -0.001 | [3] -0.003 | [4] -0.013 | entinostat -0.011 | vorinostat -0.033 | citarinostat 0.024 | silmitasertib 0.013 | [5] -0.011 | [6] -0.057

NUP133 (UniProt Q8WUM0)
inactive: [1] 0.034 | [2] 0.127 | [3] -0.024 | [4] -0.109 | entinostat -0.008 | vorinostat 0.104 | citarinostat -0.004 | silmitasertib 0.007 | [5] 0.039 | [6] -0.092

The listing continues:

NUP43 (UniProt Q8NFH3)
inactive: [1] 0.042 | [2] -0.005 | [3] -0.053 | [4] 0.014 | entinostat -0.003 | vorinostat 0.01 | citarinostat 0.091 | silmitasertib 0.003 | [5] -0.028 | [6] 0.008

NUP37 (UniProt Q8NFH4)
inactive: [1] -0.025 | [2] -0.041 | [3] -0.045 | [4] -0.037 | entinostat -0.004 | vorinostat 0.046 | citarinostat 0.055 | silmitasertib 0.041 | [5] -0.103 | [6] -0.029

NUP107 (UniProt P57740)
inactive: [1] -0.009 | [2] -0.022 | [3] 0.056 | [4] -0.032 | entinostat -0.039 | vorinostat 0.416 | citarinostat 0.016 | silmitasertib 0.085 | [5] 0.045 | [6] -0.109

OTUD4 (UniProt Q01804)
inactive: [1] 0.006 | [2] 0.026 | [3] 0.071 | [4] 0.001 | entinostat -0.051 | vorinostat 0.016 | citarinostat -0.016 | silmitasertib 0.02 | [5] 0.033 | [6] -0.061

NUDCD3 (UniProt Q8IVD9)
inactive: [1] 0.044 | [2] -0.038 | [3] -0.146 | [4] -0.068 | entinostat 0.011 | vorinostat 0.08 | citarinostat 0.017 | silmitasertib 0.05 | [5] -0.028 | [6] -0.072

OGFOD1 (UniProt Q8N543)
inactive: [1] 0.015 | [2] 0.021 | [3] -0.08 | [4] -0.056 | entinostat -0.002 | vorinostat 0.005 | citarinostat 0.012 | silmitasertib 0.02 | [5] -0.072 | [6] -0.006

OGA (UniProt O60502)
inactive: [1] -0.042 | [2] -0.037 | [3] -0.073 | [4] -0.049 | entinostat -0.036 | vorinostat 0.008 | citarinostat 0.005 | silmitasertib -0.001 | [5] -0.064 | [6] 0.052

NUDT18 (UniProt Q6ZVK8)
inactive: [1] -0.061 | [2] -0.013 | [3] -0.017 | [4] -0.003 | entinostat -0.017 | vorinostat -0.069 | citarinostat 0.021 | silmitasertib 0.221 | [5] 0.049 | [6] 0.041

OSTC (UniProt Q9NRP0)
inactive: [1] -0.062 | [2] 0.028 | [3] -0.107 | [4] -0.134 | entinostat 0.039 | vorinostat -0.001 | citarinostat 0.074 | silmitasertib -0.011 | [5] 0.05 | [6] -0.067

NUP214 isoform 5 (UniProt P35658)
inactive: [1] -0.019 | [2] -0.039 | [3] 0.001 | [4] -0.031 | entinostat 0.024 | vorinostat 0.027 | citarinostat 0.058 | silmitasertib 0.168 | [5] 0.113 | [6] -0.038

NUCB1 (UniProt Q02818)
inactive: [1] 0.028 | [2] -0.004 | [3] 0.008 | [4] 0.027 | entinostat -0.011 | vorinostat 0.009 | citarinostat -0.012 | silmitasertib 0.009 | [5] -0.01 | [6] -0.001

NSUN2 (UniProt Q08J23)
inactive: [1] 0.029 | [2] -0.246 | [3] -0.106 | [4] -0.027 | entinostat 0.01 | vorinostat 0.137 | citarinostat 0.013 | silmitasertib 0.046 | [5] -0.026 | [6] -0.075
